# The list shows a part of the results. The main result of the screen is listed elsewhere. These columns were measured beside it and carry no call. The list favours compounds with an active or inconclusive main result. Potencies come from curve fits of mixed quality, noted in brackets.
# Assay: qHTS Assay to Find Inhibitors of Chronic Active B-Cell Receptor Signaling
# Settings: ABC-DLBCL IkBa-CBG/CBR reporter, luminescence ratio (green luciferase fused to IkBa over red control in TMD8 lymphoma cells), 4 h; measured here: CBR red luminescence, cell number
# In short: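 Compounds up to 46 uM were incubated four hours with TMD8 cells whose green CBG68 luciferase is fused to IkappaBalpha; red CBR luminescence normalised the signal, and concentration-effect curves were fitted to fusion, red and ratio data.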
row,Compound,AC50
1,Cc1ccc(C(=O)OCC(=O)NCc2cccs2)c(C)c1,"11.2 µM [falling, partial curve, poor fit]"
2,COc1ccc(/C=C/C(=O)Nc2cccc(C(C)=O)c2)cc1,"23.1 µM [falling, single point]"
3,COc1ccc(C(CNc2ncnc3sc(C)c(C)c23)N(C)C)cc1 (configuration not stated),"6.31 µM [rising, single point]"
4,Cc1c(NC(=O)OCCNC(=O)COc2ccc(Cl)cc2Cl)sc(=S)n1C,"9.2 µM [rising, partial curve]"
5,O=C(O)C1CCN(C(=O)COc2ccc3c(c2)oc(=O)c2ccccc23)CC1,"10 µM [falling, partial curve]"
6,CCn1cc(C(=O)N[C@@H](CCSC)C(=O)NCCCOC)c(=O)c2cc3c(cc21)OCO3,"35.5 µM [rising, partial curve, poor fit]"
7,Cc1nc(NC(C)C)c2cnn(CCc3ccccc3)c2n1,"29.1 µM [falling, single point]"
8,CN1C(=O)/C(=C2\SC(N3CCCCCC3)=NC2=O)c2ccccc21,"4.11 µM [falling, single point]"
9,COc1cccc(NC(=O)/C=C/c2ccco2)c1,"7.94 µM [falling, partial curve]"
10,CN1CCN(S(=O)(=O)c2ccc(N(C)Cc3ccc(C(F)(F)F)cc3)c([N+](=O)[O-])c2)CC1,"23.1 µM [falling, single point]"
11,COc1ccc(C(=O)Nc2cc(Cl)ccc2OC(=O)c2ccc(OC)cc2)cc1,"0.141 µM [rising, full curve, poor fit]"
12,O=C(NCCCn1ccnc1)c1cccc(S(=O)(=O)N2CCCCCC2)c1,"16.4 µM [rising, single point]"
13,O=C(CCl)Nc1ccccc1C(=O)NCc1ccccc1,"25.1 µM [falling, single point]"
14,Cc1ccc(Sc2ncccc2C(=O)NCC(c2ccc(F)cc2)N2CCOCC2)c(C)c1 (configuration not stated),"23.1 µM [rising, single point]"
15,O=C(CN1C(=O)NC2(CCCCC2)C1=O)Nc1ccc(F)cc1,"15.8 µM [falling, partial curve]"
16,CCc1ccc2nc(N3CCN(C)CC3)c(C#N)cc2c1,"3.16 µM [rising, full curve, poor fit]"
17,Cc1c(NC(=O)c2ccc(=O)oc2)c(=O)n(-c2ccccc2)n1C,"29.1 µM [rising, partial curve, poor fit]"
18,CCN(CC)CC#CCC(O)(c1ccccc1)C1CCCC1 (configuration not stated),"0.461 µM [falling, full curve, poor fit]"
19,CCN(CC)S(=O)(=O)c1cccc(C(=O)N/N=C/c2cccc(O)c2O)c1,"23.1 µM [falling, single point]"
20,O=C(CCN1C(=O)/C(=C\c2cccs2)SC1=S)Nc1nccs1,"29.1 µM [falling, single point]"
21,CCCCNC(=O)C1CCN(c2nc(C)cc(C)n2)CC1,"2.51 µM [rising, partial curve, poor fit]"
22,Brc1ccccc1-c1nc(-c2ccccc2)no1,"2.59 µM [rising, partial curve]"
23,O=C1c2c([N+](=O)[O-])cc([N+](=O)[O-])cc2S(=O)N1Cc1ccccc1 (configuration not stated),"15.8 µM [rising, single point]"

row,Compound,AC50
1,Cc1noc(C)c1C(=O)Nc1ccc(Cl)cc1C(F)(F)F,"5.62 µM [falling, single point]"
2,O=C(N/N=C/C=C/c1ccccc1[N+](=O)[O-])c1cccs1,"23.1 µM [falling, partial curve]"
3,Cc1csc(CCc2nc(C)cs2)n1,"0.731 µM [falling, partial curve, poor fit]"
4,COc1ccc(OC)c(CNc2ccc3c(c2)CCC3)c1,"11.2 µM [rising, single point]"
5,NC(=O)CC(NC(=O)c1cccc(Br)c1)c1ccc(N2CCCCCC2)c([N+](=O)[O-])c1 (configuration not stated),"22.4 µM [falling, single point]"
6,CCCCOc1ccc(CSCCNC(=S)Nc2ccccc2)cc1,"7.31 µM [rising, partial curve]"
7,CCOc1ccc(NC(=O)c2cc(S(=O)(=O)N3CCc4ccccc43)ccc2F)cc1,"4.47 µM [falling, full curve, poor fit]"
8,COc1ccccc1Nc1n[nH]c(=S)s1,"10 µM [falling, partial curve, poor fit]"
9,O=C(Nc1ccc2c(c1)OCCO2)c1ccc2nccnc2c1,"11.2 µM [falling, partial curve]"
10,CC(C)c1ccc(NC(=O)c2cc(S(=O)(=O)N(C)C3CCCCC3)ccc2F)cc1,"14.1 µM [rising, partial curve, poor fit]"
11,COc1cccc(C(=O)N/N=c2\sc3ccccc3n2C)c1,"6.51 µM [falling, partial curve]"
12,CCSc1nnc(C)c2ccccc12,"1.12 µM [rising, full curve, poor fit]"
13,Cc1ccc(NC(=O)C(C)Sc2nnc(C3CC3)n2C2CC2)cc1S(=O)(=O)N1CCOCC1 (configuration not stated),"1.64 µM [rising, partial curve, poor fit]"
14,Cc1sc2nc(SCCO)n(-c3ccccc3)c(=O)c2c1C,"20 µM [rising, partial curve, poor fit]"
15,O=C(N/N=C/c1c(F)cccc1Cl)C1CC1,"15.8 µM [rising, single point]"
16,COc1ccc(N(C(=O)c2ccncc2)S(=O)(=O)c2ccc3c4c(cccc24)C(=O)N3C)cc1,"2 µM [falling, full curve]"
17,CCN(CC)CCNC(=O)CCCCCn1c(=O)[nH]c2cc(C(=O)OC)ccc2c1=O,"11.6 µM [falling, partial curve, poor fit]"
18,CC(C)Cc1csc(NC(=O)c2ccc(Cl)cc2)c1C(=O)O,"0.184 µM [falling, full curve, poor fit]"
19,Cc1ccc(S(=O)(=O)CC(=O)N2CCCCCC2)cc1,"7.31 µM [rising, full curve, poor fit]"
20,O=C1Nc2ccc([N+](=O)[O-])cc2OC1CCN1CCN(Cc2ccc3c(c2)OCO3)CC1 (configuration not stated),"11.2 µM [falling, single point]"
21,COc1ccc(Oc2nc(-c3ccccn3)nc3ccccc23)cc1,"35.5 µM [falling, single point]"
22,O=C(CCSc1nc2ccccc2o1)N1CCOCC1,"13 µM [falling, partial curve]"
23,CCC(=O)Nc1ccc(S(=O)(=O)N2CCC(c3nc4ccccc4[nH]3)CC2)cc1,"8.2 µM [rising, full curve, poor fit]"

# Arranged by number of heavy atoms (largest number first): part of the list above
row,Compound,AC50
20,O=C1Nc2ccc([N+](=O)[O-])cc2OC1CCN1CCN(Cc2ccc3c(c2)OCO3)CC1 (configuration not stated),"11.2 µM [falling, single point]"
21,COc1ccc(Oc2nc(-c3ccccn3)nc3ccccc23)cc1,"35.5 µM [falling, single point]"
4,COc1ccc(OC)c(CNc2ccc3c(c2)CCC3)c1,"11.2 µM [rising, single point]"

# Later entries:

row,Compound,AC50
1,O=C(N/N=C/C1CCCCC1)c1cc(Cl)ccc1O,"0.631 µM [falling, full curve]"
2,O=C(NCc1ccc(F)cc1)c1noc2c1CCCC2,"2.82 µM [rising, full curve, poor fit]"
3,CCOC(=O)NC(=O)/C(C#N)=N/Nc1c(F)cccc1F,"20.6 µM [rising, single point]"
4,COc1cccc2c1C(=O)C=C(C)C2=O,"29.1 µM [falling, single point]"
5,CCOC(=O)c1sc(=S)n(C)c1NC(=O)c1ccc(OC)cc1,"25.1 µM [rising, single point]"
6,CS(=O)(=O)CCSc1ncccc1C(=O)NCc1cccs1,"35.5 µM [falling, single point]"
7,O=C(Nc1ccc(O)cc1)c1ccc2c(c1)C(=O)N(Cc1ccco1)C2=O,"0.82 µM [rising, partial curve, poor fit]"
8,CCN(C(=O)C1=COCCO1)c1nc2c(C)cccc2s1,"25.9 µM [rising, partial curve]"
9,CN(CC(=O)NCCC1=CCCCC1)S(=O)(=O)c1ccc2c(c1)CCC(=O)N2,"4.11 µM [rising, full curve, poor fit]"
10,COc1ccc(S(=O)(=O)N(C)C)cc1NC(=O)c1ccc2c(c1)NC(=O)C(C)S2 (configuration not stated),"2.91 µM [rising, single point]"
11,Cc1cccc(CCN2C(Nc3ccccc3)=NC[C@@H]2CC(C)C)c1,"16.4 µM [falling, partial curve, poor fit]"
12,O=C(Nc1ccccc1)C(Cc1cccs1)c1nn[nH]n1 (configuration not stated),"29.1 µM [falling, single point]"
13,CCOC(=O)N1CCN(C(=O)CCN2C(=O)/C(=C\c3ccccc3OC)SC2=S)CC1,"14.1 µM [falling, partial curve]"
14,CCOC(=O)Cc1cn(C(=O)OC(C)(C)C)c2ccccc12,"1.03 µM [rising, full curve, poor fit]"
15,O=C(Nc1ccc2c(c1)OCO2)OCc1ccccc1,"15.8 µM [falling, single point]"
16,CCCOc1nc(SCCC)nc2c1cnn2-c1ccccc1,"7.94 µM [rising, partial curve, poor fit]"
17,COc1ccc(N2CCN(CCCNC(=O)Nc3ccccc3)CC2)cc1,"23.1 µM [rising, partial curve]"
18,CC(C)(C)C1CCc2sc(-c3nnc(CCl)o3)cc2C1 (configuration not stated),"35.5 µM [falling, single point]"
19,Nc1c(C=C2C=CC(=O)C=C2)c(=O)nc2snc(SCc3ccccc3)n12,"5.62 µM [rising, single point]"
20,Clc1ccc(CNCCC2=CCCCC2)cc1,"29.1 µM [rising, single point]"
21,CC(=O)c1ccc(NC(=O)Nc2cccc(Cl)c2)cc1,"0.00461 µM [rising, full curve, poor fit]"

# From PubChem BioAssay AID493014 (National Center for Advancing Translational Sciences (NCATS), 2011)
